## Results of single-concentration screens

Values are the deposited “Percent Effect”, in %.
The record does not define 0% and 100%; most values in the screen are far below 50% and negative numbers occur (in some assays of this library far below -100).
The compounds are a random part of those screened.
Two or more numbers in one place are separate tests of the same structure; such repeats can differ widely.

Mtb glucose medium: 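Phenotypic screen: M. tuberculosis growth, glucose 7H9 medium, 3 days; the read-out is not stated. Concentration: 50 µM. The record gives no direction; compounds that gave an IC50 in retests scored well above the rest, so higher reads as more growth inhibition. Of about 69,000 compounds tested this way, about 760 (1.1%) reached 50% or more in at least one test.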
Mtb cholesterol medium: 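Growth of Mycobacterium tuberculosis over 4 days (cholesterol / DPPC medium with tyloxapol); the read-out is not stated. Tested at 50 µM. The record gives no direction; compounds that gave an IC50 in retests scored well above the rest, so higher reads as more growth inhibition. About 69,000 compounds were tested under these conditions; 0.54% (about 370) showed 50% or more at least once.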

Compound	Mtb glucose medium	Mtb cholesterol medium
CN(CCc1ccccn1)C(=O)c1cccs1.Cl	12.58	4.898
CC1(C)CN(Cc2c[nH]c(CC3CCCC3)n2)CC[C@]1(C)O	11.21	1.111
CC1(NC(=O)CC2CCc3ccccc32)CCOCC1 (centres unmarked)	11.22	90.9 and 5.78
COc1ccc(CN2CCN(c3nccnc3OC)CC2=O)cc1	-2.186 and -2.99	-11.49
CC(C)c1nnc2n1CCN(Cc1cc(Cl)c3c(c1)OCCO3)C2	-9.552	-2.892
O=C(O)C(F)(F)F.O=C(O)C(F)(F)F.[H][C@@]12CCCO[C@]1([H])[C@H](N(C)Cc1cccnc1)CN2C(=O)CC1CC1	-16.94	-29.26
CN(CCCc1ccc(C(F)(F)F)cc1)Cc1nccn1C	32.18	23.78
COC(=O)c1ccc(N2CCN(C(=O)C(C)C)C(C)C2)cc1 (centres unmarked)	-20.21	-9.8
c1cc(CNCC2CNc3ccnn3C2)cc(OC2CCCC2)n1 (centres unmarked)	0.2635	7.366
Cc1ccc(-c2cc(CN3CCc4cncnc4C3)on2)cc1	15.44	12.97
COc1ccc([C@@H]2CN(c3cc(OC)ncn3)C[C@H]2N(C)C)cc1	-20.26	-9.928
Cc1noc(CN2CCN(C(=O)N(C)C)CC2)n1	-24.63	-18.01
CCOC(=O)COC1CCN(C(C)=O)CC(=O)N(C)c2ccccc21 (centres unmarked)	0.1754	-12.17
O=C(O)C(F)(F)F.[H][C@]12CCC[C@@]1(COCc1ccncc1)CN(C(=O)c1ccccc1F)C2	6.234 and 1.306	-3.272 and -14.56
O=C(c1csc(-c2ncccn2)n1)N1CCN2CCCCC2C1 (centres unmarked)	-0.7765 and 31.04	1.861
CS(=O)(=O)CCC(=O)N(Cc1c(F)cccc1F)C1CCCC1	-9.576	-23.01
Cc1cc(C(=O)N2CCN(c3nc4c(F)cccc4s3)CC2)no1	3.081	-8.468
CC(C)(C)c1n[nH]c(C2CN(C(=O)CCC3CC3)CCO2)n1 (centres unmarked)	12.93	0.9435
[H][C@@]12CCCN1C[C@H](CCSC)N(Cc1cnn(CC)c1C)C2	19.18	-7.903
CCCc1noc(CN(C)C(=O)C2COc3ccccc3C2)n1 (centres unmarked)	-14.66	-13.77
Cc1n[nH]c(C2CN(C(=O)CCc3cscn3)CCO2)n1 (centres unmarked)	-20.65	-5.496
Cc1nnc(N2CCCC3(CN(Cc4cccnc4)CCO3)C2)o1.O=C(O)C(F)(F)F.O=C(O)C(F)(F)F.O=C(O)C(F)(F)F (centres unmarked)	2.461	8.757
CN1CC(=O)N(c2ccsc2)CC12CCN(C(=O)c1ccccc1)C2.O=C(O)C(F)(F)F (centres unmarked)	-20.25	-20.08
Cc1ccccc1OCC1CCCN(c2cc(N)nc(N)n2)C1 (centres unmarked)	72.18	72.99
c1ccc(-c2nc(CNC3CCc4ncnn4C3)cs2)cc1 (centres unmarked)	-26.75	24.18
O=C(CCC1CCCO1)NCCc1ccccn1 (centres unmarked)	8.134	9.422
CSCC(CCO)NC(=O)Nc1cc(C)ccc1C (centres unmarked)	-17.72 and -2.509	-9.833
CN(C)c1ncc(I)c(C2CCCCN2S(C)(=O)=O)n1 (centres unmarked)	11.82	-3.759
COc1ccc([C@@H]2CN(C(=O)CCc3cc(Cl)no3)C[C@H]2N(C)C)cc1	9.296	0.4893
[H][C@]12CC[C@]([H])(CC(=O)NC1)N2C(=O)CCc1ccc2c(c1)OCO2	-3.997 and -15.8	-27.92
COCCN1CCC2(CC1)CC(c1ccccc1)C(=O)N2C (centres unmarked)	-20.22	-5.829
CSc1nccc(N2CCC3(CCCN(CC4CC4)C3)C2)n1 (centres unmarked)	-35.64	-3.435
O=C(NCc1ccco1)c1cccc(C(=O)NCc2ccco2)n1	13.71	-14.27
Cc1cc(NC2CC3(CCN(Cc4csc(C)n4)C3)C2)ncn1 (centres unmarked)	-0.7467	-0.08012 and 0.2851
CC(C)c1cc(C2CCN(Cc3cc(F)cc(F)c3)CC2)[nH]n1	19.71	17.49
O=C(O)c1csc(S(=O)(=O)N2CCN(Cc3c(F)cccc3Cl)CC2)c1	-17.54 and 7.563	-8.222
N#Cc1ccccc1OCCN1CCC(N2CCNC2=O)CC1	-3.053	-0.02346
Cc1cc(C)n(C2CCN(S(C)(=O)=O)CC2)n1	-27.47	-55.14
N[C@@H]1CC[C@@H]1NC(=O)c1ccccc1OC(F)(F)C(F)F	5.137 and 4.717	3.648
Cn1ncc2c1CCCC2NCc1cccnc1 (centres unmarked)	-24.72	-15.67
Cc1cc(C(=O)N2CCn3cc(CN4CCCCC4)nc3C2)no1	-31.7	5.781 and -20.04
Cc1nc(CCNC(=O)NC(C)c2ccc3c(c2)OCCO3)cs1 (centres unmarked)	-23.31	-12.74
Cc1ccc(CNC(=O)NC2CCCN(c3ncccn3)C2)cn1 (centres unmarked)	-1.208	-14.11
COc1ccc(N2CCC(N3C[C@H](NC(C)=O)[C@@H](C(C)C)C3)CC2)cc1	7.616	-2.953
CCOc1ccnc(N2CCN(C(=O)c3cc(Cl)c[nH]3)CC2)n1	-20.81	-6.523
Cn1ccnc1CN(Cc1cccnc1)CC1CCCO1 (centres unmarked)	-44.29	-23.74
Cc1ccccc1NC(=O)Nc1cc(N2CCCC2)ncn1	-4.9 and -1.339	-13.88
CC(=O)N1CCCC1c1cccc(NCc2ccccc2F)n1 (centres unmarked)	-0.01543	-14.1
CCOCC1CN(Cc2ccoc2)Cc2nn(CC3CC3)cc21.O=C(O)C(F)(F)F (centres unmarked)	-12.15	-8.079 and -4.137
COCC(=O)NCCn1nc(-c2cc(C)oc2C)ccc1=O	-6.268	8.264 and -10.03
O=C(O)C(F)(F)F.O=C(O)C(F)(F)F.[H][C@@]12C[C@@H](C(=O)NC)N(C(C)=O)[C@]1([H])CN(Cc1ccc(C)s1)C2	15.42	-6.74 and 2.449
O=C(O)C(F)(F)F.[H][C@@]12COC[C@]1(COc1ccccn1)CN(S(=O)(=O)N(C)C)C2	24.99	-3.532
CSCC(C)(O)CNS(=O)(=O)Cc1ccc(F)cc1 (centres unmarked)	-7.491	1.104
CC(C)c1nc(CN2CCOCC2)cs1	-19.86	-9.412
Cc1cccc(CN2CCC(c3csc4nccn34)CC2)n1.O=CO	-2.538	-5.113 and 2.776
CCOCC1CN(S(C)(=O)=O)Cc2cnn(CC3CCOCC3)c21.O=C(O)C(F)(F)F (centres unmarked)	-7.629	-19.5
CCn1cc(-c2nn3c(C(F)(F)F)nnc3s2)cn1	3.177	-32.97
O=C(Cn1c(=O)n(Cc2ccco2)c2ncccc21)Nc1ccccn1	-13.16	-21.15
Cc1nn(CC(=O)Nc2ccon2)cc1Br	1.911	25.91
COc1ccc(NC(=O)c2cnc(N(C)C3CCCCC3)nc2N)cc1	0.09804	11.52
O=C(COc1ccccc1O)N1CCOC(C(F)(F)F)C1 (centres unmarked)	1.433 and -8.375	-9.26
COc1ccc(-c2nc(C)cc(SCC(N)=O)n2)cc1	11.36 and 0.7512	-34.3
CC1Cc2ccccc2N1Cc1occc1C(=O)OCC(N)=O (centres unmarked)	21.05	10.28
Cc1cccnc1N1CC2(CCN(Cc3cccnc3)C2)C1.O=C(O)C(F)(F)F.O=C(O)C(F)(F)F.O=C(O)C(F)(F)F	-27.64	-29.18

Some entries from above, unchanged:

CCCc1noc(CN(C)C(=O)C2COc3ccccc3C2)n1 (centres unmarked) read Mtb glucose medium: -14.66%; Mtb cholesterol medium: -13.77%.
Cc1nn(CC(=O)Nc2ccon2)cc1Br read Mtb glucose medium: 1.911%; Mtb cholesterol medium: 25.91%.
O=C(O)C(F)(F)F.O=C(O)C(F)(F)F.[H][C@@]12CCCO[C@]1([H])[C@H](N(C)Cc1cccnc1)CN2C(=O)CC1CC1 read Mtb glucose medium: -16.94%; Mtb cholesterol medium: -29.26%.
Cc1cc(C(=O)N2CCn3cc(CN4CCCCC4)nc3C2)no1 read Mtb glucose medium: -31.7%; Mtb cholesterol medium: 5.781% and -20.04%.

The values are deposited in ChEMBL (CHEMBL3988442, “University of Dundee, Small-Polar-MMV Screening Library” (2021)).